Each structure is given as a SMILES string. Structures were worked out from names or drawings and are uncertain. Where only a bound is given, the exact number is not on record here.

Chains of the proteins cited; added tags and fusions are not shown.
UniProt P20292, whole entry: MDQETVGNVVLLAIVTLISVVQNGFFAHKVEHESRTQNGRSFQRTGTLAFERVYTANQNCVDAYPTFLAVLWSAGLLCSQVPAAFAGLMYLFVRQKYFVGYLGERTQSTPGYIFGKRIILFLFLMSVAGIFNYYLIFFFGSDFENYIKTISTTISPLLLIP

Assay [1] addresses recombinant human FLAP protein (Homo sapiens, UniProt P20292). In words: FLAP binding assay (Scintillation Proximity Assay, displacement of [125I]L-691,831). The following applies: read-out: FLAP SPA IC50. On the technique in general: SPA uses beads or plates that emit light when radiolabelled molecules are held near them.
In assay [2] the test system is synthesis of LTB4 in human whole blood. In words: human whole blood LTB4 production inhibition assay. The note with it: read-out: hWB LTB4 IC50, calcimycin stimulated.

For the compound `C[C@@](c1ccc(-c2cnc(N)nc2)nc1)(c1noc(-c2cnn(CC#N)c2)n1)C1CC1`, the half-maximal inhibitory concentration (IC50) (commonly the point on the concentration scale where inhibition reaches its midpoint) in assay [1] is 6.3 nM; in assay [2] it was 32 nM.
For `CC(C)[C@](C)(c1ccc(-c2cnc(N)nc2)nc1)c1noc(-c2cnn(CCN3CCCC3)c2)n1` the same measures were 13 nM and 30 nM.
For `CC(C)C(C)(c1ccc(-c2cnc(N)nc2)nc1)c1noc(-c2cn(CC(=O)N(C)C)cn2)n1` (stereo not drawn) the same measures were 700 nM and over 5000 nM.
